{"source": "paper PMC8472790", "about": "“Dual Emissive Ir(III) Complexes for Photodynamic Therapy and Bioimaging” (Pharmaceutics, 2021)", "test_system": "A549 cells", "experiment": "Fluorescence confocal microscopy colocalization with MitoTracker Red", "assay_type": "cell-based, Human", "details": "2 µM complex, MTR 15 nM"}
{"compound": "[Cl-].c1ccc(N(c2ccccn2)c2c3ccccc3cc3ccccc23)nc1.c1cnc2c(c1)ccc1ccc[c]([Ir+][c]3cccc4ccc5cccnc5c34)c12", "note": "[Complex 3]", "values": [{"measurement": "Subcellular localization (colocalization with MTR)", "result": "fully colocalizes with the signal emitted by MTR"}]}
